Source: paper PMC3187839
Results are given in words; binding and its absence hold for the method and conditions named. Binding seen in cells or lysates may run through a third protein. Some entries that bind do so weakly or less than the wild type.

Amino acid sequences for entries named in this document (tags omitted). A change or cut given only in a name is not applied to a line headed by its entry.
UniProt O95292: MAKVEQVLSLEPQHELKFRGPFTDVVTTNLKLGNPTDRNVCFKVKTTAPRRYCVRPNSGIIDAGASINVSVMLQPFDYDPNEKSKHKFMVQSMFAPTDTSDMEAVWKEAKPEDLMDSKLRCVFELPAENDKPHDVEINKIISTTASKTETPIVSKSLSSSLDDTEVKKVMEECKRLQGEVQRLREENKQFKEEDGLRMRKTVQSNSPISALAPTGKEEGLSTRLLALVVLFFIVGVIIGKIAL
UniProt P84078: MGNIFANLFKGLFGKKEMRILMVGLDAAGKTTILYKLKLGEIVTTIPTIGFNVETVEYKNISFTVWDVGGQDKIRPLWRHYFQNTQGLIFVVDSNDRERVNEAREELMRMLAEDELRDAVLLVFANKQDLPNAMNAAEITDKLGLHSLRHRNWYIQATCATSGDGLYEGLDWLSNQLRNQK
UniProt P00441: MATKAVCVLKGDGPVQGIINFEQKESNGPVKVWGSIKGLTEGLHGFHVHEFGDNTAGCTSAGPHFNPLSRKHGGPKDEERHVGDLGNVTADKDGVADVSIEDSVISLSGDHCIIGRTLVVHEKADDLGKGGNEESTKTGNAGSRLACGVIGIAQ
UniProt P36536: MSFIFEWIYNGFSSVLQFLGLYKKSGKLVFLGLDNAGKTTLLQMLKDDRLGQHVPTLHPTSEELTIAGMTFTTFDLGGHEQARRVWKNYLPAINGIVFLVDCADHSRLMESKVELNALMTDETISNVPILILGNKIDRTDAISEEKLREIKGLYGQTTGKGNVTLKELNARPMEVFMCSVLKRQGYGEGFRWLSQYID
UniProt P28066: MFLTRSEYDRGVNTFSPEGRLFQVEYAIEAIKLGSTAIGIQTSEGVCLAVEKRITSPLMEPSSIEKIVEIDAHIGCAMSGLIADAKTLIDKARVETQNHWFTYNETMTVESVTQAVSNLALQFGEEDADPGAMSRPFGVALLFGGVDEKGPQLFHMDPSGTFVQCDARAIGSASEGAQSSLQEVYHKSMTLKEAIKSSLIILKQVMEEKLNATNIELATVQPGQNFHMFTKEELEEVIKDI

How the values were obtained:
Assay in all cases: co-IP; lysates of transfected COS-7 cells (IP buffer: 20 mM Tris-HCl pH 7.5, 150 mM NaCl, 5 mM EDTA, 5 mM EGTA, 2 mM ATP, 10% glycerol, 1% Triton X-100); 1 mg protein, overnight at +4°C with anti-hVAPB, anti-hVAPA, anti-myc or anti-Rpt2 and Protein A or G sepharose; Western blot for endogenous alpha 5 or alpha 1–7
[1] = target: ALS-associated P56S mutated human VAPB (human) (UniProt O95292)
[2] = target: myc-tagged ADP-ribosylation factor 1 (Arf1, COPI coat protein) (mouse) (UniProt P84078)
[3] = target: wildtype human VAPB (vesicle-associated membrane protein (VAMP)-associated protein B) (human) (UniProt O95292)
[4] = target: myc-tagged human superoxide dismutase-1 (human) (UniProt P00441)
human VAPA (human) = target: T1, human VAPA (human) (UniProt Q9P0L0)
T1 sequence: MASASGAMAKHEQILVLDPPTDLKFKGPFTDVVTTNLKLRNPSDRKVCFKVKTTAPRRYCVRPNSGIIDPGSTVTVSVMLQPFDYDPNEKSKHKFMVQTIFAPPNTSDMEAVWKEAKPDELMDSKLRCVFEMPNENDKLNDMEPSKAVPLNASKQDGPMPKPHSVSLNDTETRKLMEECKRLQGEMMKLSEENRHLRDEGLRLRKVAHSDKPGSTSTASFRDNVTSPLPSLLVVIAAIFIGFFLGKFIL

[5] = target: myc-tagged Sar1 (COPII coat protein) (UniProt P36536)

- binding [1]: binds
- binding [2]: no binding
- binding [3]: binds
- binding [4]: no binding
- binding (human VAPA (human)): no binding
- binding [5]: no binding
Substance: alpha 5 subunit of the proteasome (from UniProt P28066 1-241)
